Values quoted from earlier work in patent US9561238B2, “Pharmaceutical compositions comprising estetrol derivatives for use in cancer therapy” (Donesta Bioscience B. V., priority 2002, dated 2017).

Conditions: endogenous; cited from earlier work

C[C@]12CC[C@@H]3c4ccc(O)cc4CC[C@H]3[C@@H]1[C@@H](O)[C@@H](O)[C@@H]2O [E4, 1,3,5(10)-estratrien-3,15α,16α,17β-tetrol]
Unconjugated estetrol level in fetal relative to maternal plasma: about 12 times
